# Test results as given in patent US20060241172A1, “Benzodioxane and benzodioxolane derivatives and uses thereof” (Wyeth, priority 2005, published 2006).
# By UniProt entry, the sequences of proteins in these tests, tags left out. Residues count along the entry.
# UniProt P28335, 33-458 limits assumed: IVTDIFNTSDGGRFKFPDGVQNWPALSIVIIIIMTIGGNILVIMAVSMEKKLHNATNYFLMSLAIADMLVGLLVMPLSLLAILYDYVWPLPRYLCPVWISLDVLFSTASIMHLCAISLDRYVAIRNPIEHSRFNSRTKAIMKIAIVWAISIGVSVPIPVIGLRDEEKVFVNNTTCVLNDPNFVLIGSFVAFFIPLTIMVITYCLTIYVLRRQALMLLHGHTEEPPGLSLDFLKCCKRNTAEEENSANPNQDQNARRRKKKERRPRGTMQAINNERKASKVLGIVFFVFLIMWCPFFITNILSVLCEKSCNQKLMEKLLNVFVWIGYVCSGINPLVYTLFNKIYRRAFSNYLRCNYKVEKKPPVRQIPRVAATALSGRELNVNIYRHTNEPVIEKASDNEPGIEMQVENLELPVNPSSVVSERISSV
# Tests used:
# [1] = biological target: human 5-hydroxytryptamine-2C (h5-HT2C) receptor (Homo sapiens, UniProt P28335); experiment: 5-HT2C binding: [125I]DOI displacement in membranes of transfected CHO cells; settings: read-out: 5-HT2C Binding Ki avg; tested form: fumarate
# [2] = biological target: human 5-HT2C receptor (Homo sapiens, UniProt P28335); experiment: 5-HT2C receptor-stimulated calcium mobilization (FLIPR) in CHO cells; type: cell-based; settings: tested form: fumarate; for 5-HT2C Function EMax (%): percentage of the response to a maximally effective concentration of 5-HT; for EC50: read-out: 5-HT2C Function EC50
SMILES,Ki [1] [nM],5-HT2C Function EMax (%) [2] [%],EC50 [2] [nM]
CCCNCC1COc2cccc(-c3ccccc3Cl)c2O1 (centres unmarked),50 to 200,20,> 500
CNCC1COc2cccc(-c3ccc(Cl)cc3Cl)c2O1 (centres unmarked),–,40,100 to 500
CCNCC1COc2cccc(-c3ccccc3Cl)c2O1 (centres unmarked),50 to 200,30,100 to 500

# The match of structure and compound is tentative.
